# Test results reported in patent US20030099613A1, “Viral replicons and viruses dependent on inducing agents” (priority 1999, published 2003).
# For at least one compound, name, drawing or mass did not settle the structure.
# System: HIV-tTA virus
# Test: Replication of HIV-tTA virus with and without dox
# Type: cell-based, HIV-1
compound,measurement,value
"C[C@H]1c2cccc(O)c2C(=O)C2=C(O)[C@]3(O)C(=O)C(C(N)=O)=C(O)[C@@H](N(C)C)[C@@H]3[C@@H](O)[C@@H]21 [dox, doxycycline]",inhibition of HIV-tTA virus,selectively and specifically inhibited
